From patent US7985771B2, “Furanone derivatives” (Monsanto Technology LLC, priority 2002, dated 2011)
Some results were stated once for a whole list of compounds, not compound by compound.

What was measured:
neonatal cardiomyocytes = assay: Myocyte calcium-contractility assay; assay type: cell-based, rat; conditions: after simulated ischemia and reoxygenation, Fluo-4 fluorescence
[1] = tested on: primary hippocampal neuronal cells; assay: Hippocampal anoxia-reoxygenation cell death assay (neuronal ischemia stress assay); assay type: cell-based, mouse; conditions: at concentrations ranging from 1 to 100 micromolar
[2] = tested on: ELAM (E-selectin) expression in endothelial cells; assay: E-selectin (ELAM) cell inflammation assay; assay type: cell-based; conditions: LPS and IL-1β stimulation; read-out: reduction of expression of ELAM, EC50
Experimental: Endothelial-Leukocyte Adhesion Molecule (ELAM), also known as E-selectin, is expressed on the surface of endothelial cells. In this assay, lipopolysaccharide (LPS) and IL-1β are used to stimulate the expression of ELAM; test agents are tested for their abilities to reduce this expression, in accordance with studies showing that reduction of leukocyte adhesion to endothelial cell surface is associated with decreased cellular damage (e.g., Takada, M., Et al., Transplantation 64: 1520-25, 1997; Steinberg, J. B., et al., J. Heart Lung Trans. 13:306-313, 1994).
Endothelial cells may be selected from any of a number of sources and cultured according to methods known in the art; including, for example, coronary artery endothelial cells, human brain microvascular endothelial cells (HBMEC; Hess, D.C., et al., Neurosci. Left. 213(1): 37-40, 1996), or lung endothelial cells. Cells are conveniently cultured in 96-well plates. Cells are stimulated by adding a solution to each well containing 10 μg/ml LPS and 100 pg/ml IL-1β for 6 hours in the presence of test agent (specific concentrations and time may be adjusted depending on the cell type). […] Wells are allowed to develop for 35 minutes, before measurement at 402 nm in a Fluoroskan® Reader with shake program for 10 seconds. Positive results are recorded as a decrease in ELAM concentration in tested wells, as compared to control wells.

Compound | presence of calcium transients (neonatal cardiomyocytes) [%] | protection against stressor-induced cell death, % of the cells tested [1] | EC50 [2] [µM]
CCOC(=O)C1(CSC[C@H](C)C(=O)N2CCC[C@H]2C(=O)O)OC(=O)C(O)=C1SC[C@H](C)C(=O)N1CCC[C@H]1C(=O)O (stereo in doubt) [3-[3-(2-Carboxy-pyrrolidin-1-yl)-2-methyl-3-oxo-propylsulfanyl]-2-[3-(2-carboxy-pyrrolidin-1-yl)-2-methyl-3-oxo-propylsulfanylmethyl]-4-hydroxy-5-oxo-2,5-dihydro-furan-2-carboxylic acid ethyl ester] | ≥ 30 |  | 
CCOC(=O)C1(CSc2nc3ccccc3[nH]2)OC(=O)C(O)=C1Sc1nc2ccccc2[nH]1 (stereo not drawn) [3-(1H-Benzoimidazol-2-ylsulfanyl)-2-(1H-benzoimidazol-2-ylsulfanylmethyl)-4-hydroxy-5-oxo-2,5-dihydro-furan-2-carboxylic acid ethyl ester] | ≥ 30 |  | 
CCOC(=O)C1(CSc2nc(N)n[nH]2)OC(=O)C(O)=C1Sc1nc(N)n[nH]1 (stereo not drawn) [3-(5-Amino-2H-[1,2,4]triazol-3-ylsulfanyl)-2-(5-amino-2H-[1,2,4]triazol-3-ylsulfanylmethyl)-4-hydroxy-5-oxo-2,5-dihydro-furan-2-carboxylic acid ethyl ester] | ≥ 30 | at least 40% | 
CCOC(=O)C1(CSc2nnc(N)s2)OC(=O)C(O)=C1Sc1nnc(N)s1 (stereo not drawn) [3-(5-Amino-[1,3,4]thiadiazol-2-ylsulfanyl)-2-(5-amino-[1,3,4]thiadiazol-2-ylsulfanylmethyl)-4-hydroxy-5-oxo-2,5-dihydro-furan-2-carboxylic acid ethyl ester] | ≥ 30 | at least 40% | 
CCOC(=O)C1(CSc2nc3cc(Cl)ccc3s2)OC(=O)C(O)=C1Sc1nc2cc(Cl)ccc2s1 (stereo not drawn) [3-(5-Chloro-benzothiazol-2-ylsulfanyl)-2-(5-chloro-benzothiazol-2-ylsulfanylmethyl)-4-hydroxy-5-oxo-2,5-dihydro-furan-2-carboxylic acid ethyl ester] | ≥ 30 | at least 40% | 
CCOC(=O)C1(CSc2nc3cc(OC)ccc3[nH]2)OC(=O)C(O)=C1Sc1nc2cc(OC)ccc2[nH]1 (stereo not drawn) [4-Hydroxy-3-(5-methoxy-1H-benzoimidazol-2-ylsulfanyl)-2-(5-methoxy-1H-benzoimidazol-2-ylsulfanylmethyl)-5-oxo-2,5-dihydro-furan-2-carboxylic acid ethyl ester] | ≥ 30 |  | 
CCOC(=O)C1(CSc2nc3cc([N+](=O)[O-])ccc3[nH]2)OC(=O)C(O)=C1Sc1nc2cc([N+](=O)[O-])ccc2[nH]1 (stereo not drawn) [4-Hydroxy-3-(5-nitro-1H-benzoimidazol-2-ylsulfanyl)-2-(5-nitro-1H-benzoimidazol-2-ylsulfanylmethyl)-5-oxo-2,5-dihydro-furan-2-carboxylic acid ethyl ester] | ≥ 30 |  | 
CCOC(=O)C1(CSc2nnnn2-c2ccccc2)OC(=O)C(O)=C1Sc1nnnn1-c1ccccc1 (stereo not drawn) [4-Hydroxy-5-oxo-3-(1-phenyl-1H-tetrazol-5-ylsulfanyl)-2-(1-phenyl-1H-tetrazol-5-ylsulfanylmethyl)-2,5-dihydro-furan-2-carboxylic acid ethyl ester] |  | at least 40% | 
O=C1OC(C(=O)O)C(Sc2nc(-c3ccccc3)cs2)=C1O (stereo not drawn) [4-Hydroxy-5-oxo-3-(4-phenyl-thiazol-2-ylsulfanyl)-2,5-dihydro-furan-2-carboxylic acid] |  | at least 40% | 
CCOC(=O)C1(CSc2nc3cc(S(=O)(=O)O)ccc3[nH]2)OC(=O)C(O)=C1Sc1nc2cc(S(=O)(=O)O)ccc2[nH]1 (stereo not drawn) [4-Hydroxy-5-oxo-3-(5-sulfo-1H-benzoimidazol-2-ylsulfanyl)-2-(5-sulfo-1H-benzoimidazol-2-ylsulfanylmethyl)-2,5-dihydro-furan-2-carboxylic acid ethyl ester] |  | at least 40% | 
CCOC(=O)C1(CSc2ccnc3cc(C(F)(F)F)ccc23)OC(=O)C(O)=C1Sc1ccnc2cc(C(F)(F)F)ccc12 (stereo not drawn) [4-Hydroxy-5-oxo-3-(7-trifluoromethyl-quinolin-4-ylsulfanyl)-2-(7-trifluoromethyl-quinolin-4-ylsulfanylmethyl)-2,5-dihydro-furan-2-carboxylic acid ethyl ester] |  | at least 40% | 
CCOC(=O)C1(CSc2ncnc3[nH]cnc23)OC(=O)C(O)=C1Sc1ncnc2[nH]cnc12 (stereo not drawn) [4-Hydroxy-5-oxo-3-(9H-purin-6-ylsulfanyl)-2-(9H-purin-6-ylsulfanylmethyl)-2,5-dihydro-furan-2-carboxylic acid ethyl ester] |  | at least 40% | 
CCOC(=O)C1(CSc2ccncc2)OC(=O)C(O)=C1Sc1ccncc1 (stereo not drawn) [4-Hydroxy-5-oxo-3-(pyridin-4-ylsulfanyl)-2-(pyridin-4-ylsulfanylmethyl)-2,5-dihydro-furan-2-carboxylic acid ethyl ester] |  | at least 40% | 
CCOC(=O)C1(CSc2ncccn2)OC(=O)C(O)=C1Sc1ncccn1 (stereo not drawn) [4-Hydroxy-5-oxo-3-(pyrimidin-2-ylsulfanyl)-2-(pyrimidin-2-ylsulfanylmethyl)-2,5-dihydro-furan-2-carboxylic acid ethyl ester] |  | at least 40% | 
CCOC(=O)C1(CSc2ccc(C)cc2)OC(=O)C(O)=C1Sc1ccc(C)cc1 (stereo not drawn) [4-Hydroxy-5-oxo-3-p-tolylsulfanyl-2-p-tolylsulfanylmethyl-2,5-dihydro-furan-2-carboxylic acid ethyl ester] |  | at least 40% | 
CCOC(=O)C12CSc3c(Cl)ccc(Cl)c3SC1=C(O)C(=O)O2 (stereo not drawn) [5,8-Dichloro-3-hydroxy-2-oxo-2H-1-oxa-4,9-dithia-benzo[f]azulene-10a-carboxylic acid ethyl ester] |  | at least 40% | 
CC(=O)C1OC(=O)C(O)=C1Sc1nc2ccccc2s1 (stereo not drawn) [5-Acetyl-4-(benzothiazol-2-ylsulfanyl)-3-hydroxy-5H-furan-2-one] |  | at least 40% | 
Di-[2-(4-Hydroxy-5-oxo-2-carboxylic acid methyl ester)]-disulfide |  |  | ≤ 30
